Data from article PMC3557289.
No constants are given. Whether binding was seen depends on the method and setting. In cells and extracts the contact can be indirect. Binding can be weak; no strength is given. Where a sequence is shown, tags or fusion partners need not be part of it.

Molecular target: PPV-VPg fused to the C-terminal fragment of YFP (Plum pox virus)
Experiment: split reporter; BiFC with YFP fragments 1-174 (YN) and 175-239 (YC); transient co-expression in N. benthamiana epidermal cells by agroinfiltration; confocal imaging 36-48 hours after infiltration

B1: PdeIF(iso)4E fused to the N-terminal fragment of YFP (protein, UniProt M1J8U6 1-213)
chain: MATEVAAAVPPPQLDAEENSGLEAAAAEAKIQPSSGPHKLERKWTFWFDNQSKPKQGAAWGSSLRKAYTFETVQEFWCLYDQVFKPSKFPPNADFHLFRAGVEPKWEDPECANGGKWTVTSRSKASLDTMWLETLMALIGEQFDEADEICGVVASVRQRQDKLALWTRNAANEAAQMGIGRKWKEIIDVTDKITYSFHDDSKRERSAKPRYNV
For B1, the binding was “binds”.
